Experimental data reported in patent US5041533 (dated 1991).

Test: general procedure: solution-phase peptide synthesis; mixed anhydride method
Details: late stage modification step

Substance: H-Thr(tBu)-Cys(Acm1-Pro-Pro-Cys-Pro-Ala-Pro-OH
- step yield: 93%
